PubChem BioAssay AID1259308 | NCATS – 2017
Shown is an unselected part of about 59,000 reagents tested. Over the whole deposit, about 1,510 (2.6%) got an active call. 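Calls use total luciferase alone and ignore viability, so some active siRNAs may act by altering cell number.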 Unmarked entries are inactive. Reagents against one gene are numbered here.

Purpose: 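Knock-downs that increase output of a recombinant reporter protein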 (primary screen)
Cells: human HEK293 embryonic kidney cells stably expressing firefly luciferase (HEK-CMV-Luc2-Hygro)
Reagent: single siRNA against human genes, 0.8 pmol siRNA per well
Timing: 72 h
Measurement: 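Luciferase light (ONE-Glo) measured on one replicate plate set and viability (CellTiter-Glo) on the other, scaled to a negative control siRNA, with robust z-scores and luciferase per cell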
Reading the numbers: total luciferase, z-score and total luciferase, % of control: higher = more reporter protein produced; luciferase per cell, z-score: higher = more reporter output per viable cell; viable cells, % of control: higher = more viable cells
Rule for the call: 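An siRNA counts as active if its total luciferase robust z-score exceeds 3; genes with two or more such siRNAs out of three were retested with fresh siRNAs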
Meaning of the calls: active = raised luciferase; inactive = no rise

| gene symbol | reagent | total luciferase, z-score | total luciferase, % of control | luciferase per cell, z-score | viable cells, % of control |
| --- | --- | --- | --- | --- | --- |
| SGSM2 | 1 | -0.81 | 65.8 | -1.94 | 122 |
| SGSM2 | 2 | -0.695 | 68.1 | -1.05 | 100 |
| SGSM2 | 3 | -0.46 | 72.7 | -0.576 | 94.6 |
| HLA-L | 1 | 1.57 | 113 | 0.724 | 104 |
| HLA-L | 2 | 0.389 | 89.6 | -0.339 | 110 |
| HLA-L | 3 | -0.0494 | 80.9 | -0.893 | 114 |
| PMS2P2 | 1 | 2.73 | 136 | 2.14 | 86.6 |
| PMS2P2 | 2 | -0.213 | 77.6 | -0.139 | 90 |
| PMS2P2 | 3 | -0.125 | 79.4 | -0.816 | 110 |
| CORT | 1 | 1.45 | 111 | 0.882 | 98 |
| CORT | 2 | 1.69 | 116 | 1.2 | 94.1 |
| CORT | 3 | 1.01 | 102 | 1.07 | 85.9 |
| TJAP1 | 1 | -0.366 | 74.6 | -0.444 | 93.7 |
| TJAP1 | 2 | -0.747 | 67 | 0.392 | 67.6 |
| TJAP1 | 3 | -0.227 | 77.4 | -0.841 | 108 |
| AGO2 | 1 | -0.697 | 68 | -0.711 | 91.7 |
| AGO2 | 2 | 0.154 | 85 | 0.122 | 91.9 |
| AGO2 | 3 | -0.176 | 78.4 | -0.241 | 93.3 |
| DNAJC1 | 1 | -0.39 | 74.1 | -0.214 | 87.6 |
| DNAJC1 | 2 | 0.895 | 99.7 | 1.04 | 84.8 |
| DNAJC1 | 3 | -0.95 | 63 | -0.733 | 85.4 |
| AURKA | 1 | -1.58 | 50.4 | -0.847 | 70.4 |
| AURKA | 2 | -0.736 | 67.2 | 0.0122 | 74.9 |
| AURKA | 3 | -1.16 | 58.8 | -0.112 | 67.6 |

In a second layout: results already given
gene symbol | reagent | total luciferase, z-score | total luciferase, % of control | luciferase per cell, z-score | viable cells, % of control
PMS2P2 | 3 | -0.125 | 79.4 | -0.816 | 110
CORT | 1 | 1.45 | 111 | 0.882 | 98
CORT | 2 | 1.69 | 116 | 1.2 | 94.1
CORT | 3 | 1.01 | 102 | 1.07 | 85.9
TJAP1 | 1 | -0.366 | 74.6 | -0.444 | 93.7
TJAP1 | 2 | -0.747 | 67 | 0.392 | 67.6
TJAP1 | 3 | -0.227 | 77.4 | -0.841 | 108

The listing continues:
| gene symbol | reagent | total luciferase, z-score | total luciferase, % of control | luciferase per cell, z-score | viable cells, % of control |
| --- | --- | --- | --- | --- | --- |
| RPL7AP66 | 1 | -1.76 | 46.9 | 1.88 | 32 |
| RPL7AP66 | 2 | -0.827 | 65.4 | -0.381 | 80.8 |
| RPL7AP66 | 3 | -2.13 | 39.5 | -0.152 | 45.9 |
| DNAJC25 | 1 | 1.32 | 108 | 0.336 | 111 |
| DNAJC25 | 2 | 0.389 | 89.6 | -0.0126 | 100 |
| DNAJC25 | 3 | -0.746 | 67.1 | -0.624 | 88.3 |
| FAM110B | 1 | -1.94 | 43.2 | -0.853 | 60.5 |
| FAM110B | 2 | 0.543 | 92.7 | -0.346 | 113 |
| FAM110B | 3 | -1.76 | 46.8 | -2.01 | 88.9 |
| PDCD6P1 | 1 | 0.283 | 87.5 | 0.822 | 78.8 |
| PDCD6P1 | 2 | -0.716 | 67.6 | -0.0324 | 76.2 |
| PDCD6P1 | 3 | -2.25 | 37.2 | -1.91 | 68.8 |
| CYP21A2 | 1 | -0.0154 | 81.6 | -0.304 | 98.8 |
| CYP21A2 | 2 | -0.61 | 69.7 | -1.04 | 103 |
| CYP21A2 | 3 | -0.0661 | 80.6 | -0.452 | 101 |
| ELP6 | 1 | 1.39 | 110 | 0.587 | 105 |
| ELP6 | 2 | 2.1 | 124 | 1.18 | 101 |
| ELP6 | 3 | -0.611 | 69.7 | 0.265 | 72.7 |
| INHA | 1 | -0.5 | 71.9 | -0.471 | 91 |
| INHA | 2 | 1.04 | 103 | 0.439 | 102 |
| INHA | 3 | -0.697 | 68 | -0.753 | 92.7 |
| RPL7P46 | 1 | 1.13 | 104 | 0.671 | 97.8 |
| RPL7P46 | 2 | 0.543 | 92.7 | 0.683 | 86.5 |
| RPL7P46 | 3 | -0.643 | 69.1 | 0.0301 | 76.6 |
| FHL2 | 1 | -0.947 | 63 | -0.718 | 85.1 |
| FHL2 | 2 | -0.632 | 69.3 | -0.825 | 96.3 |
| FHL2 | 3 | -1.48 | 52.5 | -0.964 | 75.6 |
| IFT57 | 1 | -0.762 | 66.7 | -0.862 | 93.6 |
| IFT57 | 2 | -1.59 | 50.2 | -1.01 | 73.1 |
| IFT57 | 3 | 0.218 | 86.2 | 0.806 | 77.9 |
| COL6A5 | 1 | 1.96 | 121 | 1.95 | 80.8 |
| COL6A5 | 2 | 1.42 | 110 | 1.53 | 82.1 |
| COL6A5 | 3 | 1.13 | 104 | 1.34 | 81.9 |
